In the supplement of paper PMC10849652:
The list shows a part of the results. Residues, ends and D or L forms follow the SMILES beside them. *: point of attachment. Cbz = O=C(OCc1ccccc1)*

The chains behind the UniProt entries cited, without tags or fusion partners. Where a name states a change or a piece, a line headed by the entry shows the natural chain unless it says otherwise.
UniProt Q8TCA0: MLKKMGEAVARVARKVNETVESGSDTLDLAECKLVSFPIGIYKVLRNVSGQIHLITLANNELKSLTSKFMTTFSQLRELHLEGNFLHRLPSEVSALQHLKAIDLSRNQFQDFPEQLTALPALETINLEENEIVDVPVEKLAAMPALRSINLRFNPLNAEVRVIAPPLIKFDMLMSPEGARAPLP
UniProt P11279: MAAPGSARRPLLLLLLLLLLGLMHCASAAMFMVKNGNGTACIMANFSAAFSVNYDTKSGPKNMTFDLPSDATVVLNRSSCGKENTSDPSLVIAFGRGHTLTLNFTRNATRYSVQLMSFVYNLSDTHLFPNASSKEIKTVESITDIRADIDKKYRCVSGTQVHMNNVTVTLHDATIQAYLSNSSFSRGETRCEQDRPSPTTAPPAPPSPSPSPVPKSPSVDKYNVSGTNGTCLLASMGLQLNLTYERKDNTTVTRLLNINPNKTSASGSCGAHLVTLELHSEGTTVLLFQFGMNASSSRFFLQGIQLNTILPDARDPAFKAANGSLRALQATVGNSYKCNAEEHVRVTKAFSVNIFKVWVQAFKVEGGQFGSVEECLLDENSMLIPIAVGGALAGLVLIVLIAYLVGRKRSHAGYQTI
UniProt Q9H0V9: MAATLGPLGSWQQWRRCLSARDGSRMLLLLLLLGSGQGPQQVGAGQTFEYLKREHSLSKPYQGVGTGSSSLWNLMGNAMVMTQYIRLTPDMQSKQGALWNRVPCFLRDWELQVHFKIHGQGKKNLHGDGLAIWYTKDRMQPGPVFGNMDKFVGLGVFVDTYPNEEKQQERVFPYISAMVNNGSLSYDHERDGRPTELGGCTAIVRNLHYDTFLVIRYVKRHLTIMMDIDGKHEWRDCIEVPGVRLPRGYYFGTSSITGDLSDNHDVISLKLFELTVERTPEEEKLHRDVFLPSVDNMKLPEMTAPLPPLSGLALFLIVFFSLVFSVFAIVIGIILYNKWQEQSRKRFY
UniProt Q6ZN17: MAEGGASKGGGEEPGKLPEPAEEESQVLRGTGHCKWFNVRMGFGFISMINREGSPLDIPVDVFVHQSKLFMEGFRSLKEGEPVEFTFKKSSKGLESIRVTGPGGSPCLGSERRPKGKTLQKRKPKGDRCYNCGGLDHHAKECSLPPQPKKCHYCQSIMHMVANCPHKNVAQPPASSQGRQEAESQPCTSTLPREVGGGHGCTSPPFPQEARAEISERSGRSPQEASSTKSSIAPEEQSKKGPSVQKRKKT
UniProt P48059, whole entry, looked up: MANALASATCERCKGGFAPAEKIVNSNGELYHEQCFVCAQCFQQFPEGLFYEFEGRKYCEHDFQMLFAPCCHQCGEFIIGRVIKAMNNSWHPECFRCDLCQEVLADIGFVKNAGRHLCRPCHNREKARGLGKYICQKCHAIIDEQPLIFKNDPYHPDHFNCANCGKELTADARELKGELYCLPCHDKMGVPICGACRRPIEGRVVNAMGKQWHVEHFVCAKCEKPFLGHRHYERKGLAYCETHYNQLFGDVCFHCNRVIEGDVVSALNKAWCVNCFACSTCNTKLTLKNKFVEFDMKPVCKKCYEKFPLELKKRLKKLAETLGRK
UniProt Q6P1Q0: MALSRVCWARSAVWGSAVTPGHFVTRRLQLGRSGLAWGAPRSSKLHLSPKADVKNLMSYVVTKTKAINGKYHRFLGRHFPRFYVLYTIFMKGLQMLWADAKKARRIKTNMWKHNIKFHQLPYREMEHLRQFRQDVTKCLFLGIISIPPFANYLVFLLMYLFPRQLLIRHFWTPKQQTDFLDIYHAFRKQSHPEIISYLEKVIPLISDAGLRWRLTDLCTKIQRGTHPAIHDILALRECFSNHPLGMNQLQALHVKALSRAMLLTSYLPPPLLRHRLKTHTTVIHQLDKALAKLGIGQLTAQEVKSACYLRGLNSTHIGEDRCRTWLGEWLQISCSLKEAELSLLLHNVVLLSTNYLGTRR
UniProt P53671: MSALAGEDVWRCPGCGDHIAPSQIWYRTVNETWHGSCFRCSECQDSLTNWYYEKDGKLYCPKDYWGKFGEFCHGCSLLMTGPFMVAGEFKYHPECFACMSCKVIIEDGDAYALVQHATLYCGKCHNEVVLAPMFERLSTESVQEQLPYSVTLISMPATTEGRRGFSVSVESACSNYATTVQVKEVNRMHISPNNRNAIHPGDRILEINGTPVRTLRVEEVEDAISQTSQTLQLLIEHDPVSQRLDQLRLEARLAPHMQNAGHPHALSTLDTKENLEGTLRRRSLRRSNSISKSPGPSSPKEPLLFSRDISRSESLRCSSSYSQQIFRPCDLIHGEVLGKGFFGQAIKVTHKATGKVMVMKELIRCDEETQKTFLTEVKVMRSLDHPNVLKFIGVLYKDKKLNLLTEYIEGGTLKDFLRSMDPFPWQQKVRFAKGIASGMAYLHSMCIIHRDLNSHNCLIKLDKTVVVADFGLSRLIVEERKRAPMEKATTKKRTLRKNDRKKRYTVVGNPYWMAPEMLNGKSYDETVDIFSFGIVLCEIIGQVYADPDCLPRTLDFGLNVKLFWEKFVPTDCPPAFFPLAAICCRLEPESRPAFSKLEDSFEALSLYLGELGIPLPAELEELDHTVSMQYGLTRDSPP
UniProt Q6UWP7: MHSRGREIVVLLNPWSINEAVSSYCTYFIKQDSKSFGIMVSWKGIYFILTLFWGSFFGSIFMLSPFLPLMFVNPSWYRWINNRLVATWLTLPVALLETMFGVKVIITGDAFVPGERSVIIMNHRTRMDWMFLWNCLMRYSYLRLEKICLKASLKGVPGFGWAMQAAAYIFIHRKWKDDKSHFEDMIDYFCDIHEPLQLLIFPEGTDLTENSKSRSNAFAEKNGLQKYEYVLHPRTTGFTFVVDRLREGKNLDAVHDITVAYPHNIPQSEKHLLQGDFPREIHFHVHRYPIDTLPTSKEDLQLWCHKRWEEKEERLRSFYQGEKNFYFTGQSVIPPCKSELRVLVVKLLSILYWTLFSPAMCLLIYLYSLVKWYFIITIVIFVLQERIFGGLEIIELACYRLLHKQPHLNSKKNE
UniProt Q96BZ8: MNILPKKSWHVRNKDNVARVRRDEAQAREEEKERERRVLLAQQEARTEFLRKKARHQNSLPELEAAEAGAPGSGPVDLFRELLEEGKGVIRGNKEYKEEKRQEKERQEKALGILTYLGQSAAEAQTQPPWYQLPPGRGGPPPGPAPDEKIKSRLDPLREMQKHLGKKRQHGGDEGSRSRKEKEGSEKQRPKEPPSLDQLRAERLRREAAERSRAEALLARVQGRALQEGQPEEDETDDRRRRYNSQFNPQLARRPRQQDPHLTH
UniProt Q9UIC8: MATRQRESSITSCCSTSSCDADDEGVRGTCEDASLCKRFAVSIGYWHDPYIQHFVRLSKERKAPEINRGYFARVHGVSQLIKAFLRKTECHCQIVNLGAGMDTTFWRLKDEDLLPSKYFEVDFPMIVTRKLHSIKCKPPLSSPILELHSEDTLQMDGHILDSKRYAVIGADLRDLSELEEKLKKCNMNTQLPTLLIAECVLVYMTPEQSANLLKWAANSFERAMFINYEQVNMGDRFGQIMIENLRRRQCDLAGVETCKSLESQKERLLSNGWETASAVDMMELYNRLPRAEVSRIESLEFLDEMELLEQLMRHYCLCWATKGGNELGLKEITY
UniProt Q16773: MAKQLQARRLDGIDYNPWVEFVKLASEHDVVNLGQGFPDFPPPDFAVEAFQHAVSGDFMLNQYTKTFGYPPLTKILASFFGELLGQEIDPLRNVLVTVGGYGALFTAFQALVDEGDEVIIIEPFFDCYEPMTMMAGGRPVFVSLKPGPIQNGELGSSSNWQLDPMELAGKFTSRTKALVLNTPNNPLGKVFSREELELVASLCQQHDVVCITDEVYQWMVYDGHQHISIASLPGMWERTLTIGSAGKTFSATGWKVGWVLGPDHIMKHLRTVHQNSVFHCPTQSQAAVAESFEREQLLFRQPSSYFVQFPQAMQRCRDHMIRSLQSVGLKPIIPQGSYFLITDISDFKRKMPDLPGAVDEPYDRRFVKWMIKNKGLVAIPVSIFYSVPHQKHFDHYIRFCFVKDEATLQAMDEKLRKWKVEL
UniProt Q9BRT6: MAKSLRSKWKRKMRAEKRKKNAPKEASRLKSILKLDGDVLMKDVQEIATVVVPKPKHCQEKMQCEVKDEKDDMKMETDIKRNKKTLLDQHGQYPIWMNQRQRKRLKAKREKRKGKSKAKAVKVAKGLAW
UniProt P25791: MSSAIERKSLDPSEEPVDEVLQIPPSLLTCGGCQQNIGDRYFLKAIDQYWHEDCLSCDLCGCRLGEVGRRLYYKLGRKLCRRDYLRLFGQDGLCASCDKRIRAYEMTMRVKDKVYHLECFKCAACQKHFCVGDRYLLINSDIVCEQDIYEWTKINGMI
UniProt Q9P2J5: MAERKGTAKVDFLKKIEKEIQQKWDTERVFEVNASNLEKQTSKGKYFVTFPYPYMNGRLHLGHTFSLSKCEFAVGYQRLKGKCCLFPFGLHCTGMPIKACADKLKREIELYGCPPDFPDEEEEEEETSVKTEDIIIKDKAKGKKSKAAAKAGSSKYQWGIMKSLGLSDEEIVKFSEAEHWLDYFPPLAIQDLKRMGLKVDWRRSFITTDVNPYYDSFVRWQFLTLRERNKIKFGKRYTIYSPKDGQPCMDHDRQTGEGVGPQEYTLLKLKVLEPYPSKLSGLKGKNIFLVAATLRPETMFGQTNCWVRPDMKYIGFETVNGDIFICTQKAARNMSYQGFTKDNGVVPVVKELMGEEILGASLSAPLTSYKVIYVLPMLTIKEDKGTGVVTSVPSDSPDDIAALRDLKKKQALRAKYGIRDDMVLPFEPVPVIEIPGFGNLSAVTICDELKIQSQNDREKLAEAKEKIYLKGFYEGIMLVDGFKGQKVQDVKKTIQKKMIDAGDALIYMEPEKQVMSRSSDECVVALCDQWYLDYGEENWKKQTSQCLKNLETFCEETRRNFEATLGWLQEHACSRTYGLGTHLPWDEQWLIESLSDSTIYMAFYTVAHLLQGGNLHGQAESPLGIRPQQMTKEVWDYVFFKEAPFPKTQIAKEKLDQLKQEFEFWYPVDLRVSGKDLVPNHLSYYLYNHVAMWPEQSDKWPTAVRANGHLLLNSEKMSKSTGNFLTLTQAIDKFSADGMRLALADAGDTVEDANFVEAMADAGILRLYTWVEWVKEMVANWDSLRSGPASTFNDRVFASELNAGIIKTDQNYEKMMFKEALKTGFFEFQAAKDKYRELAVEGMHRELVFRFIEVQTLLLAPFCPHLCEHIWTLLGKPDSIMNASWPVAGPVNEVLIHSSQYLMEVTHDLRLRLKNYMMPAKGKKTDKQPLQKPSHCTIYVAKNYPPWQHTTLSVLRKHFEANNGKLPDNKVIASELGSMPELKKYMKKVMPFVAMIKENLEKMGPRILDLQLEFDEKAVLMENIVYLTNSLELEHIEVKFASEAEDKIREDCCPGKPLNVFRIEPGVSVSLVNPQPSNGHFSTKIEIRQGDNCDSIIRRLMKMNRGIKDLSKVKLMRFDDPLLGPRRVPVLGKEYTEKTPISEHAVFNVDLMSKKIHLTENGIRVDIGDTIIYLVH
UniProt Q5T3J3: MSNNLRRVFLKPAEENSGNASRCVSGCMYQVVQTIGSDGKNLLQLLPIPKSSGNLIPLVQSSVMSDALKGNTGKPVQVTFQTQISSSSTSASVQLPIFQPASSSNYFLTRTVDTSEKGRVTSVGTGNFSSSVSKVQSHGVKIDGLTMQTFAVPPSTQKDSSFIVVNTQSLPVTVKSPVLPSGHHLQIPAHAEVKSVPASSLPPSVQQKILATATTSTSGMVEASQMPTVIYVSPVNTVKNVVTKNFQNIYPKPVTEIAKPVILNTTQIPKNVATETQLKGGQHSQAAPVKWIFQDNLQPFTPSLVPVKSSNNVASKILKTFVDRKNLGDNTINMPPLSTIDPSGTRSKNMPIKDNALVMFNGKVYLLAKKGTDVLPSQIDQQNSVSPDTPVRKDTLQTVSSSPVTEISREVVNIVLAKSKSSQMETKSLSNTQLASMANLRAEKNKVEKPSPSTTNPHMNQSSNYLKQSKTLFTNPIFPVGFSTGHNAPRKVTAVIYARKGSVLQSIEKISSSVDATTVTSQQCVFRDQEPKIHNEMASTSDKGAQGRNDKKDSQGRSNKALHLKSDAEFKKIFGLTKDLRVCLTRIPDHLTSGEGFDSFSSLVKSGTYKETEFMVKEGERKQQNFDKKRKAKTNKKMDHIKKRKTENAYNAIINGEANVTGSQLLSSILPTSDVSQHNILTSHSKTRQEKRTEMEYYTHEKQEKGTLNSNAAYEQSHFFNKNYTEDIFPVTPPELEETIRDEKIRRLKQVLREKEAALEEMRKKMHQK
UniProt O14910: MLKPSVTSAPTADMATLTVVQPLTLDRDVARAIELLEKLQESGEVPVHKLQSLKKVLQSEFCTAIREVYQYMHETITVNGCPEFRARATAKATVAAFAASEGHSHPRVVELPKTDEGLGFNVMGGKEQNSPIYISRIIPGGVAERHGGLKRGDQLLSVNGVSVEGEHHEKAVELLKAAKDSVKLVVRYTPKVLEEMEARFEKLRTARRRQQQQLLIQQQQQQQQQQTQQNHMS

Columns and labels:
Test in all cases: log2 fold change, soluble protein after heating vs DMSO (PISA); higher = thermal stabilisation; K562 cells, 10 uM, 30 min; active = over 0.2 and 3.5 SD of the protein, either way, in both replicates (recomputed)
[1] = compound: C1COCCN1CCN2C3=CC=CC=C3N=C2NC(=O)C4=CC(=CC=C4)[N+](=O)[O-] [IRAK-1-4 Inhibitor I]
Summary of the method: (§1)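 For each measurement, 10 μM compound was applied for 30 min to K562 cells at 2×10^6 cells/mL. Aliquots were heated for 3 min across 48°C-58°C, pooled, and extracted in PBS with 0.5% NP-40 at 4°C; the supernatant after 21,000xg for 90 min was soluble protein. This was quantified by TMTpro 16plex LC-MS/MS with channel sums equalised, and thermal stability was reported relative to control samples from duplicates, on a log2 fold-change scale.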

[2] = compound: C=CC(=O)N1CCC[C@@H](n2nc(-c3ccc(Oc4ccccc4)cc3)c3c(N)ncnc32)C1 [ibrutinib]
Summary of the method: as §1

[3] = compound: CC(=O)c1cnc2ccc(-c3cc(Cl)c(O)c(Cl)c3)nc2c1N[C@H]1CC[C@H](CN(C)C)CC1
Summary of the method: as §1

[4] = compound: CC(C)(C)Cn1c(N)nc2ccc(-c3[nH]c(C(C)(C)C)nc3-c3ccc(F)cc3)nc21 [ralimetinib]
Summary of the method: as §1

[5] = compound: CC(C)(O)CC(=O)NCCn1ccc2ncnc(Nc3ccc(Oc4cccc(C(F)(F)F)c4)c(Cl)c3)c21
Summary of the method: as §1

[6] = compound: CC(C)C1=C2N=C(C=C(N2N=C1)NCC3=CC=CC=C3)NCCCCCCN
Summary of the method: as §1

[7] = compound: CC(C)C[C@@H](C=O)NC(=O)[C@H](CC(C)C)NC(=O)[C@H](CC(C)C)NC(=O)OCc1ccccc1
Summary of the method: as §1

[8] = compound: CC(C)N(C[C@H]1O[C@@H](n2cnc3c(N)ncnc32)[C@H](O)[C@@H]1O)[C@H]1C[C@@H](CCc2nc3cc(C(C)(C)C)ccc3[nH]2)C1 [pinometostat]
Summary of the method: as §1

[9] = compound: CC1=C(C(CC(=O)N1)C2=CC=C(C=C2)C(F)(F)F)C(=O)NC3=C(C=C4C(=C3)C=NN4)F
Summary of the method: as §1

[10] = compound: CC1=C(C2=C(C=C1)C(=O)C3=CC=CC=C3N2CCCN)C
Summary of the method: as §1

Measured: log2 fold change

LDB1 (UniProt Q86U70)
inactive: [1] 0.014 | [2] 0.01 | [3] -0.025 | [4] -0.035 | [5] -0.017 | [6] 0.031 | [7] -0.013 | [8] 0.026 | [9] 0.002 | [10] -0.01

LLGL2 (UniProt Q6P1M3)
inactive: [1] 0.097 | [2] -0.024 | [3] 0.09 | [4] 0.091 | [5] 0.01 | [6] 0.085 | [7] -0.101 | [8] 0.009 | [9] 0.043

LRRC20 (UniProt Q8TCA0)
inactive: [1] -0.013 | [2] -0.008 | [3] -0.047 | [4] -0.035 | [5] -0.103 | [6] 0.023 | [7] -0.018 | [8] -0.016 | [9] 0.007 | [10] 0.18

LAMP1 (UniProt P11279)
inactive: [1] 0.039 | [2] 0.001 | [3] 0 | [4] 0.077 | [5] 0.03 | [6] 0.017 | [7] -0.055 | [8] -0.012 | [9] -0.007 | [10] -0.024

LMAN2L isoform 2 (UniProt Q9H0V9)
inactive: [1] -0.004 | [2] -0.024 | [3] -0.018 | [4] -0.003 | [5] -0.026 | [6] -0.046 | [7] 0.019 | [8] 0.014 | [9] -0.037 | [10] 0.033

LIN28B (UniProt Q6ZN17)
inactive: [1] -0.082 | [2] 0.06 | [3] 0.077 | [4] 0.116 | [5] 0.11 | [6] 0.019 | [7] 0.137 | [8] 0.189 | [9] 0.064 | [10] -0.166

LIMS1 isoform 3 (UniProt P48059)
inactive: [1] -0.008 | [2] 0.018 | [3] -0.001 | [4] -0.019 | [5] -0.01 | [6] 0.075 | [7] -0.045 | [8] -0.063 | [9] 0.027 | [10] -0.011

LAMTOR4 (UniProt Q0VGL1)
inactive: [1] -0.024 | [2] 0.009 | [3] -0.157 | [4] 0 | [5] 0.107 | [6] -0.12 | [7] -0.01 | [8] -0.078 | [9] 0.012 | [10] -0.031

LAMB1 (UniProt P07942)
inactive: [1] 0.034 | [2] -0.089 | [3] 0.017 | [4] -0.03 | [5] -0.012 | [6] -0.051 | [7] 0.012 | [8] 0.032 | [9] -0.006 | [10] -0.056

LETMD1 isoform 7 (UniProt Q6P1Q0)
inactive: [1] -0.095 | [2] 0.044 | [3] -0.109 | [4] -0.052 | [5] -0.019 | [6] -0.015 | [7] 0.024 | [8] 0.089 | [9] -0.035 | [10] 0.207

L3HYPDH (UniProt Q96EM0)
inactive: [1] 0.012 | [2] 0.017 | [3] -0.017 | [4] -0.004 | [5] -0.044 | [6] -0.012 | [7] -0.037 | [8] 0.018 | [9] -0.026 | [10] 0.049

LIMK2 isoform 3 (UniProt P53671)
inactive: [1] 0.097 | [2] 0.062 | [3] -0.11 | [4] -0.048 | [5] 0.025 | [6] 0.14 | [7] -0.025 | [8] -0.153 | [9] 0.287 | [10] 0.058

LRPAP1 (UniProt P30533)
inactive: [1] 0.005 | [2] -0.026 | [3] 0.007 | [4] 0.149 | [5] 0.03 | [6] 0.028 | [7] -0.074 | [8] -0.002 | [9] 0.022 | [10] -0.019

LARS2 (UniProt Q15031)
inactive: [1] 0.012 | [2] -0.02 | [3] 0.012 | [4] 0.044 | [5] -0.046 | [6] -0.124 | [7] 0 | [8] -0.05 | [9] -0.021 | [10] 0.046

LCLAT1 (UniProt Q6UWP7)
inactive: [1] 0.016 | [2] -0.059 | [3] -0.032 | [4] -0.013 | [5] -0.063 | [6] 0.148 | [7] -0.004 | [8] -0.031 | [9] 0.012 | [10] 0.011

2 neighbouring records from above, for reference:
LAMP1 (UniProt P11279)
inactive: [1] 0.039 | [2] 0.001 | [3] 0 | [4] 0.077 | [5] 0.03 | [6] 0.017 | [7] -0.055 | [8] -0.012 | [9] -0.007 | [10] -0.024

LMAN2L isoform 2 (UniProt Q9H0V9)
inactive: [1] -0.004 | [2] -0.024 | [3] -0.018 | [4] -0.003 | [5] -0.026 | [6] -0.046 | [7] 0.019 | [8] 0.014 | [9] -0.037 | [10] 0.033

(next part)

LCP1 (UniProt P13796)
inactive: [1] 0.041 | [2] 0.008 | [3] 0.014 | [4] -0.031 | [5] 0.042 | [6] 0.106 | [7] 0.013 | [8] -0.031 | [9] 0.033 | [10] -0.049

LENG1 (UniProt Q96BZ8)
inactive: [1] 0.065 | [2] 0.025 | [3] 0.021 | [4] -0.035 | [5] 0.045 | [6] 0.079 | [7] 0.011 | [8] -0.027 | [9] 0.001 | [10] 0.046

LPCAT1 (UniProt Q8NF37)
inactive: [1] 0.025 | [2] -0.014 | [3] 0.003 | [4] -0.04 | [5] -0.06 | [6] -0.055 | [7] 0 | [8] -0.008 | [9] -0.071 | [10] 0.013

LCMT1 (UniProt Q9UIC8)
inactive: [1] 0.048 | [2] -0.044 | [3] -0.004 | [4] 0.011 | [5] 0 | [6] -0.041 | [7] -0.063 | [8] -0.003 | [9] -0.013 | [10] 0.204

LRRC4B (UniProt Q9NT99)
inactive: [1] 0.043 | [2] 0.014 | [3] -0.027 | [4] -0.139 | [5] -0.002 | [6] 0.151 | [7] 0.126 | [8] 0.079 | [9] -0.335 | [10] 0.048

LRRC57 (UniProt Q8N9N7)
inactive: [1] 0.037 | [2] -0.005 | [3] -0.024 | [4] -0.058 | [5] 0 | [6] 0.018 | [7] -0.013 | [8] -0.017 | [9] -0.02 | [10] 0.018

LHPP (UniProt Q9H008)
inactive: [1] 0.023 | [2] -0.008 | [3] 0.036 | [4] -0.076 | [5] -0.02 | [6] 0.08 | [7] -0.038 | [8] 0.023 | [9] 0.052 | [10] -0.027

KYAT1 (UniProt Q16773)
inactive: [1] 0.02 | [2] 0.037 | [3] -0.046 | [4] -0.055 | [5] -0.025 | [6] 0.071 | [7] 0.002 | [8] -0.056 | [9] 0.025 | [10] 0

LLPH (UniProt Q9BRT6)
inactive: [1] -0.226 | [2] -0.025 | [3] 0.184 | [4] 0.235 | [5] 0.074 | [6] -0.051 | [7] 0.183 | [8] 0.33 | [9] -0.028 | [10] -0.607

LMO2 isoform 3 (UniProt P25791)
inactive: [1] 0.076 | [2] -0.023 | [3] -0.037 | [4] -0.015 | [5] -0.037 | [6] 0.12 | [7] -0.001 | [8] -0.023 | [9] 0.084 | [10] -0.024

LARS (UniProt Q9P2J5)
inactive: [1] -0.102 | [2] 0.002 | [3] 0.146 | [4] 0.2 | [5] 0.082 | [6] -0.201 | [7] 0.1 | [8] 0.355 | [9] 0.004 | [10] -0.036

LRIF1 (UniProt Q5T3J3)
inactive: [1] -0.021 | [2] 0.052 | [3] 0.067 | [4] -0.037 | [5] 0.07 | [6] 0.071 | [7] 0.076 | [8] 0.012 | [9] 0.018 | [10] -0.183

LETM1 (UniProt O95202)
inactive: [1] 0.019 | [2] -0.02 | [3] 0.029 | [4] -0.009 | [5] -0.044 | [6] -0.209 | [7] -0.067 | [8] -0.035 | [9] 0.019 | [10] 0.01

LIG1 (UniProt P18858)
inactive: [1] -0.018 | [2] -0.088 | [3] -0.221 | [4] -0.01 | [5] -0.056 | [6] -0.259 | [7] -0.003 | [8] -0.016 | [9] -0.066 | [10] 0.3

LIN7A (UniProt O14910)
inactive: [1] 0.137 | [2] 0.014 | [3] -0.024 | [4] -0.069 | [5] 0.038 | [6] 0.061 | [7] 0.035 | [8] -0.04 | [9] -0.104 | [10] -0.034
